No constants are given. Whether binding was seen depends on the method and setting. Binding seen in cells or lysates may run through a third protein. Here binding means that the protein was enriched with, or labelled near, the bait; the list need not be complete.
Molecular target: Msm FecB2-FLAG (MSMEG_0438, closest M. smegmatis homolog of Mtb FecB2 Rv0265c) (M. smegmatis) (UniProt A0QPL3)
Assay: affinity purification with mass spectrometry; M. smegmatis lysate (50 mM Tris-HCl pH 7.4, 350 mM NaCl, 10% glycerol, 1% n-dodecyl-β-D-maltoside) of cells expressing the FLAG-tagged bait; ANTI-FLAG M2 affinity gel overnight at 4°C; LC-MS/MS; hits not seen in the FLAG-only control; FecB-, MmpS4- and MmpS5-FLAG cells grown iron-depleted then with 20 μM ferric ammonium citrate, FecB2-FLAG cells under normal iron conditions

Sequences of proteins named here, by UniProt entry; tags and fusion partners are left off. A change or cut given only in a name is not applied to a line headed by its entry.
UniProt A0QQ65: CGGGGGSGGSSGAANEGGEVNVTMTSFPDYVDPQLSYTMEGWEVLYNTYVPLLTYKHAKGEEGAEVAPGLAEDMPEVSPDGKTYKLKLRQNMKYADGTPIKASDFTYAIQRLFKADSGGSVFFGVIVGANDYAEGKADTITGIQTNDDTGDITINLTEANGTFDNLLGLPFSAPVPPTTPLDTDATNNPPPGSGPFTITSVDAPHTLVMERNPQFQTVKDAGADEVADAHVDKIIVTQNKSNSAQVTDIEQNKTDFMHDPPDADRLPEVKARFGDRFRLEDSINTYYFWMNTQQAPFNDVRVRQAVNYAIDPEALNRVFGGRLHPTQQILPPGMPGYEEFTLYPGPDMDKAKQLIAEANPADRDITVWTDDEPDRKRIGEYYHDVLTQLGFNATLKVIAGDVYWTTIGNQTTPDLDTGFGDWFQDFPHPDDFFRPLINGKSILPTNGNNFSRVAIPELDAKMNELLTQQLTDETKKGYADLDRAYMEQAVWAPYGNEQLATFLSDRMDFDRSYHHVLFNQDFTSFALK
UniProt A0QR99: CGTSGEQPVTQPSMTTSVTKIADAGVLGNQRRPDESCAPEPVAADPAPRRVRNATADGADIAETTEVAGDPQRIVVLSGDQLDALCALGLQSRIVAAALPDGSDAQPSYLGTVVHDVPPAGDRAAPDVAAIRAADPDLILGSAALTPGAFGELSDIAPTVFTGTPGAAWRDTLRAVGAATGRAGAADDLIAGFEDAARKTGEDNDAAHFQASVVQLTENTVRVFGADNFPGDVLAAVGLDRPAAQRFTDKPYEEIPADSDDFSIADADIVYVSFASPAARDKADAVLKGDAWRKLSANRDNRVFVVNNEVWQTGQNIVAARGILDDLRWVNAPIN

Substance | binding
Msm OppD-2 (MSMEG_0639), endogenous (from UniProt A0QQ61) | binds
Msm OppD-1 (MSMEG_0640), endogenous (from UniProt A0QQ62) | binds
Msm OppA (MSMEG_0643), endogenous (from UniProt A0QQ65) | binds
Msm-FecB (MSMEG_1039/2319), endogenous (from UniProt A0QR99) | binds

— paper PMC10553834, “Differentiating the roles of Mycobacterium tuberculosis substrate binding proteins, FecB and FecB2, in iron uptake” (PLOS Pathogens, 2023)
